The values below come from article PMC6712171.

The data set deals with M.DraR1 (ORF16000) (Deinococcus radiodurans R1). Kind of data set: EMSA. The settings on record: 20 mM Tris-HCl pH 8.0, 100 mM KCl, 7 mM beta-mercaptoethanol, 0.1 mM EDTA, 0.1 mg/mL BSA, 0.5 mM or no SAM, 100 uM dsDNA, 0-1000 uM protein, 60 min at 4 C, recombinant protein, protein details: His-MBP (TEV-cleaved, removed). For orientation: In EMSA bound probe runs differently from free probe, usually more slowly.

The exact form of at least one protein or probe is not confirmed. Negatives hold for the conditions tested.

As to “CAGGCCGCTGCT / TAGCAGCGGCCT [S6 cassette]”, the binding result was “no binding”. For the sequence “CAGGCCGCGTCT / TAGACGCGGCCT [S7 cassette]”, the binding result is listed as “no binding”.

Consider “CAGGCTGCGGCT / TAGCCGCAGCCT [S3 cassette]”, for which the binding result is “no binding”. For the sequence “CAGGTCGCGGCT / TAGCCGCGACCT [S2 cassette]”, the binding result was “no binding”. Regarding “CAGGCCGCGGCT / TAGCCGCGGCCT [S1 cassette]”, the binding result (0.5 mM SAM) is on record as “binds”.

As to “CAGGCCTCGGCT / TAGCCGAGGCCT [S4 cassette]”, the binding result is given as “no binding”. With “CAGGCCGTGGCT / TAGCCACGGCCT [S5 cassette]”, the binding result is on record as “no binding”.
